Binding data for two molecules are collected here from article doi:10.1101/2024.02.14.580290.

By UniProt entry, the sequences of proteins in these tests, tags left out. Where a name states a change or a piece, a line headed by the entry shows the natural chain unless it says otherwise.
UniProt Q5W0Z9: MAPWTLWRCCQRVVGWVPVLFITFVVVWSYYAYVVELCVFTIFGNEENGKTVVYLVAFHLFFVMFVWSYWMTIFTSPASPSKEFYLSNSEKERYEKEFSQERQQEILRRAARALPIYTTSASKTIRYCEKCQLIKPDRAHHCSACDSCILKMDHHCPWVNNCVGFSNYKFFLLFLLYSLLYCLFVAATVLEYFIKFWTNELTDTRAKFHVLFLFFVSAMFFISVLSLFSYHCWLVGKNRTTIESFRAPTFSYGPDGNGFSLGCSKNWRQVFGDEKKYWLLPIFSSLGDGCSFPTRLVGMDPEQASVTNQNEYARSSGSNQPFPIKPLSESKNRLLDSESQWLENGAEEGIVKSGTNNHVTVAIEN

This experiment has as its target DHHC20 (DHHC20-linker-TEV-TwinStrep) (UniProt Q5W0Z9). Put plainly: affinity purification with mass spectrometry.

Results are given in words; binding and its absence hold for the method and conditions named. In cells and extracts the contact can be indirect. These calls come from enrichment with a bait or labelling near it, and not all partners need be listed.

B1: ICAM-2 (protein, UniProt P13598 25-275)
chain: KVFEVHVRPKKLAVEPKGSLEVNCSTTCNQPEVGGLETSLDKILLDEQAQWKHYLVSNISHDTVLQCHFTCSGKQESMNSNVSVYQPPRQVILTLQPTLVAVGKSFTIECRVPTVEPLDSLTLFLFRGNETLHYETFGKAAPAPQEATATFNSTADREDGHRNFSCLAVLDLMSRGGNIFHKHSAPKMLEIYEPVSDSQMVIIVTVVSVLLSLFVTSVLLCFIFGQHLRQQRMGTYGVRAAWRRLPQAFRP
Consider B1, for which the binding entry was “binds”.

B2: Linker for activation of T cells (LAT) (protein, UniProt O43561 1-262)
chain: MEEAILVPCVLGLLLLPILAMLMALCVHCHRLPGSYDSTSSDSLYPRGIQFKRPHTVAPWPPAYPPVTSYPPLSQPDLLPIPRSPQPLGGSHRTPSSRRDSDGANSVASYENEGASGIRGAQAGWGVWGPSWTRLTPVSLPPEPACEDADEDEDDYHNPGYLVVLPDSTPATSTAAPSAPALSTPGIRDSAFSMESIDDYVNVPESGESAEASLDGSREYVNVSQELHPGAAKTEPAALSSQEAEEVEEEGAPDYENLQELN
Consider B2, for which the binding result was “binds”.
